# Laboratory results reported in PMC9019904, “AD Informer Set: Chemical tools to facilitate Alzheimer's disease drug discovery” (Alzheimer's & Dementia : Translational Research & Clinical …, 2022).
# Key:
# [1] = tested on: HMC3 (human microglia) cell line; experiment: pHrodo-myelin phagocytosis/cell viability high content imaging assay: viability (cell count, nuclear area, nuclear intensity); conditions: HMC3 cells, 10 uM compound, 48 hours treatment
# Description: (§1) All AD Informer Set compounds were tested in two immortalized microglial cell lines, murine (BV2), and human (HMC3), in a high‐content imaging assay in duplicate by the Chu lab. Experimental details and all data can be found as supporting information files.
# (§2) The role of microglia in AD has been well documented and was thus chosen as a cell type in which to profile the AD Informer Set.[43], [44], [45] As an example, neuroinflammation, as detected by the presence of activated complement proteins, interleukins, cytokines, and chemokines in microglia and astrocytes, is increased early in AD and is considered pathogenic due to its chronic nature.[33], [34] Cytotoxic effects can be assessed by considering multiple parameters.
# (§3) Microglial viability and phagocytosis studies: The pHrodo-myelin phagocytosis/cell viability assay, modified based on a published method, was run with immortalized BV2 (mouse microglia) and HMC3 (human microglia) cell lines in the Chu lab at IUSM. The 384-well plate high content analysis assay with BV2 and HMC3 microglial cell lines is used to quantify both phagocytosis and cell viability simultaneously. High content imaging is performed with the ArrayScan automatic imaging system and imaging analysis done with the software on the system. After allowing cells to adhere overnight, they are treated with compounds for total 48 hours including final 20 hours seeded with pHrodo-myelin (labeled phagocytosis ligand, purified […]
# (§4) (approximately 22 hours after pHrodo-myelin addition). Three measurements are extracted from the assay: 1) phagocytosis signal by mean total phagocytosis spot intensity per cell, 2) total cell counts per well as the main measurement of cell viability, and 3) mean average nuclear intensity per cell as profiling of cell health since apoptotic cells showing nuclear intensity increase (early apoptosis) and decrease (later apoptosis), respectively. These measurements allow for evaluation of compound-induced phagocytosis (1) and cytotoxicity (2 and 3). Assays were carried out at a single concentration (10 μM). Idelalisib (10 μM) and cytochalasin-D (4 μM) were used as positive controls in the assay. All data, which was an average of 2 data points, was normalized to untreated wells and reported as % control, which is included in the Supporting Information both as a raw data file and summarized in the compound/gene-annotation file.
# [2] = tested on: BV2 (mouse microglia) cell line; experiment: as above; conditions: BV2 cells, 10 uM compound, 48 hours treatment
# Description: as §1, §2, §3, §4
structure (smiles),measurement,setting,value
O=C(NC12C[C@H]3C[C@@H](C1)C[C@@H](C2)C3)N[C@H]1CC[C@H](Oc2ccc(C(=O)O)cc2)CC1 [UNC10303108A],1. Cell count (% control),[1],146.0 % control
same,2. Nuclear Area (% Control),[1],101.3 % Control
same,3. Nuclear DNA Intensity (% control),[1],97.2 % control
same,1. Cell count (% control),[2],108.1 % control
same,2. Nuclear Area (% Control),[2],106.8 % Control
same,3. Nuclear DNA Intensity (% control),[2],104.7 % control
